Measured values published in patent EP0636174B1, “HYALURONAN RECEPTOR (RHAMM = RECEPTOR FOR HYLURONAN MEDIATED MOBILITY) AND HYALURONAN BINDING PEPTIDES” (UNIVERSITY OF MANITOBA, priority 1992, dated 1993).
Part of at least one peptide drawing is inferred or uncertain, most often the ends. Where a SMILES comes first, the peptide text is derived from it.

Experiments:
[1] = Hyaluronan-Sepharose affinity chromatography of peptides; type: binding; conditions: for ability to bind to HA-sepharose: synthetic peptides with a tyrosine residue added to one end, Figure 16
Experimental: To further test the inventor's HA-binding motif model, a number of synthetic peptides were prepared and their HA-binding ability was determined using HA-sepharose. A tyrosine residue was added to one end of each synthetic peptide for convenient spectrophotometric quantitation.
HA-Sepharose affinity gel was prepared according to the manufacturer's instruction. […]
Hyaluronan (Sigma) was coupled to AH-Sepharose 4B (Pharmacia) according to the manufacturer's instructions, resulting in an HA-Sepharose gel. Peptides, ordered from Coast Scientific (San Diego) were HPLC purified. These and randomized peptides, whose sequence was generated by computer, were applied to HA-Sepharose in the presence of 0.15 M NaCl in PBS buffer. Unbound peptides were removed by extensive washing with the same buffer. The amounts of peptides applied and that removed were determined by measuring optical density (O.D.) at 214 nm.

[2] = target: T1, GST-RHAMM fusion protein (Mus musculus, UniProt Q00547); experiment: Competition by peptides with binding of biotin-labelled HA to transblotted GST-RHAMM fusion protein; conditions: biotin-labelled HA pre-incubated for 1 h with 3 mg/ml peptide; Figure 13A
T1 construct: A complete RHAMM cDNA (1.43 kb) was expressed as a fusion protein with pGEX-2T in E. coli HB101; made in house; host or cells: E. coli HB101 (pGEX-2T)
T1 sequence (Q00547 319-794): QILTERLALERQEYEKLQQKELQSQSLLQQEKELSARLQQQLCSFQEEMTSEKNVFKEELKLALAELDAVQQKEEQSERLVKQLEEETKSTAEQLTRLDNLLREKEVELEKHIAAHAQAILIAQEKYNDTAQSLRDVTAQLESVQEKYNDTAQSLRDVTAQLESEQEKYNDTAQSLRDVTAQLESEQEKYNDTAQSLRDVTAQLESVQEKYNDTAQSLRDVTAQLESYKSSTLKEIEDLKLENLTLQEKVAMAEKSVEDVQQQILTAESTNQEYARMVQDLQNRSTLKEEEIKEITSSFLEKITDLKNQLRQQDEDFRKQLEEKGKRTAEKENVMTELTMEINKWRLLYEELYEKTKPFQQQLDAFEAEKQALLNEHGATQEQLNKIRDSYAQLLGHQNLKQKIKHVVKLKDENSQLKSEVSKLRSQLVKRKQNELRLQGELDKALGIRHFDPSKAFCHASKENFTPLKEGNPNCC
Experimental: Transblotted RHAMM fusion protein was stained with a 1:10,000 dilution of biotin-labelled HA that had been pre-incubated for 1 h with 3 mg/ml BSA (Figure 13A, lane 1) , 3 mg/ml peptide^aa401-411 (lane 2) or 3 mg/ml peptide^aa423-432 (lane 3).
GST-RHAMM fusion protein was electrophoresed on 10% SDS-PAGE and transblotted onto a nitrocellulose membrane. The membrane was cut into 3 strips and each was stained with 1:3000 diluted biotin-labelled HA in the presence of 3 mg/ml BSA, 3 mg/ml peptide^aa401-411 and 3 mg/ml peptide^aa423-432, respectively. The other steps were the same as described in immunoblots.

Structure (SMILES) | binding to HA-Sepharose ([1]; 0.15 M NaCl in PBS, Figure 13B) | blocking of the binding of biotin-labelled HA to expressed GST-RHAMM fusion protein [2] | ability to bind to HA-sepharose [1]
CC[C@H](C)[C@H](NC(=O)[C@H](CCCCN)NC(=O)[C@H](CCC(N)=O)NC(=O)[C@@H](N)CCCCN)C(=O)N[C@@H](CCCCN)C(=O)N[C@@H](Cc1c[nH]cn1)C(=O)N[C@H](C(=O)N[C@H](C(=O)N[C@@H](CCCCN)C(=O)N[C@@H](CC(C)C)C(=O)N[C@@H](CCCCN)C(=O)O)C(C)C)C(C)C [peptide^aa401-411, K^401Q K I K H V V K L K^411] (H-KQKIKHVVKLK-OH) | efficiently bound | blocked | 
CC[C@H](C)[C@H](NC(=O)[C@H](CCCCN)NC(=O)[C@H](CCC(N)=O)NC(=O)[C@H](CCCCN)NC(=O)[C@@H](N)Cc1ccc(O)cc1)C(=O)N[C@@H](CCCCN)C(=O)N[C@@H](Cc1c[nH]cn1)C(=O)N[C@@H](CC(=O)O)C(=O)N[C@@H](CC(=O)O)C(=O)N[C@@H](CCCCN)C(=O)N[C@@H](CC(C)C)C(=O)N[C@@H](CCCCN)C(=O)O [Peptide A, Y K Q K I K H D D K L K] (H-YKQKIKHDDKLK-OH) |  |  | low ability
CC[C@H](C)[C@H](NC(=O)[C@H](CCCCN)NC(=O)[C@H](CCC(N)=O)NC(=O)[C@H](CCCCN)NC(=O)[C@@H](N)Cc1ccc(O)cc1)C(=O)N[C@@H](CCCCN)C(=O)N[C@@H](Cc1c[nH]cn1)C(=O)N[C@H](C(=O)N[C@H](C(=O)N[C@@H](CC(C)C)C(=O)N[C@@H](CCCCN)C(=O)N[C@@H](CC(C)C)C(=O)O)C(C)C)C(C)C [peptide C, Y K Q K I K H V V L K L] (H-YKQKIKHVVLKL-OH) |  |  | quite high
CC[C@H](C)[C@H](NC(=O)[C@H](CCCCN)NC(=O)[C@H](CCC(N)=O)NC(=O)[C@H](CCCCN)NC(=O)[C@@H](N)Cc1ccc(O)cc1)C(=O)N[C@@H](CCCCN)C(=O)N[C@@H](Cc1c[nH]cn1)C(=O)N[C@H](C(=O)N[C@H](C(=O)N[C@@H](CC(C)C)C(=O)N[C@@H](CC(C)C)C(=O)N[C@@H](CC(C)C)C(=O)O)C(C)C)C(C)C [Peptide B, Y K Q K I K H V V L L L] (H-YKQKIKHVVLLL-OH) |  |  | low ability
